Results are given as percent effect. How 0% and 100% were set is not recorded. Most values in the screen are low, and negative values occur. This is an unselected part of the compounds tested.

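Whole-cell assay for inhibitors of Mycobacterium tuberculosis growth, labelled Cornell in the record; the read-out is not stated. The concentration is filed as 10 mM, unlikely as a test dose, so the dose is not known. The record gives no direction; compounds strong in two other growth screens of this library score well above the rest, so higher reads as stronger inhibition. Size under these conditions: about 53,000 compounds, about 900 of them at 50% or above in at least one test.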

Compound: CN1CCC(c2cccc(NCc3ccncc3)n2)CC1
percent effect: 10.08%

Compound: Cc1ccc(CN2CCOC3(COCCN(Cc4ccncc4)C3)C2)o1.O=C(O)C(F)(F)F.O=C(O)C(F)(F)F.O=C(O)C(F)(F)F (configuration not stated)
percent effect: 8.325%

Compound: O=C(O)C(F)(F)F.O=S1(=O)NCC2(CCNCC2)COc2ccccc21
percent effect: 10.47%

Compound: O=S(=O)(NCc1ccc(S(=O)(=O)N2CCCC2)s1)c1cc(Cl)ccc1Cl
percent effect: 2.046%

Compound: Cc1cnn(CCCOc2ccc3c(c2)OCO3)c1
percent effect: -11.92%

Compound: COC(=O)CNC(=O)Cn1ccc2ccc(F)cc21
percent effect: -21.23%

Compound: COc1cccc(CN2CCC(O)(c3ccc(C)cn3)CC2)c1OC
percent effect: 8.269%

Compound: CC(C)Cc1cc(C(=O)O)nc2[nH]c(=O)[nH]c(=O)c12
percent effect: 13.93%

Compound: [H][C@@]12COC[C@]1(CNS(C)(=O)=O)CN(C(=O)C1CCCCC1)C2
percent effect: -8.184%

Compound: Cc1ccc(C2CCCN(C(=O)c3cnn(C)c3)C2)nc1 (configuration not stated)
percent effect: -38.46%

Compound: CCCn1ccnc1CN1C[C@@H](NC(C)=O)[C@H](c2ccc(OC)cc2)C1
percent effect: -8.73%

Compound: Cc1cccc(NC(=O)C2(n3cnnn3)CCCCC2)n1
percent effect: 9.409%

Compound: NC(=O)CN1CC(O)c2ccccc2S1(=O)=O (configuration not stated)
percent effect: -8.078%

Compound: Cc1cc(OCC(=O)N2CCCC(c3noc(C(C)C)n3)C2)no1 (configuration not stated)
percent effect: 5.366%

Compound: Cc1noc(C2CCN(C(=O)c3cc(Cl)c(Cl)n3C)CC2)n1
percent effect: 39.92%

Compound: Cc1cnn(CC2CCCCN2Cc2cc(C)on2)c1 (configuration not stated)
percent effect: 19.33%

Compound: CN1CCN(Cc2cnc(S(=O)(=O)CC3CC3)n2CC2CCCO2)CC1 (configuration not stated)
percent effect: 3.021%

Compound: CCN(Cc1nccn1C)C(=O)c1ccc(NCC(C)C)nc1
percent effect: -9.587%

Compound: O=C(O)C(F)(F)F.[H][C@]12CC[C@@]3(N=C(C)N(CC4CC4)C3=O)[C@@]1([H])CN(Cc1ccccc1)C2
percent effect: 13.73%

Compound: CN(C)C(c1ccccn1)[C@H]1CC[C@H](CNC(=O)C2CCCC2)CC1 (some centres not stated)
percent effect: 18.33%

Compound: CC(C)SCc1cccc(NC(=O)NCCc2nnc[nH]2)c1
percent effect: 33.53%

Compound: Cc1ccccc1C(=O)NCC(=O)NCc1ccccn1
percent effect: -24.4%

Compound: Cl.O=C(NCCO)c1sc2ncccc2c1C1CNCCO1 (configuration not stated)
percent effect: 5.786%

Compound: CN1CCOC(CNC(=O)C2(c3cccc(Cl)c3)CC2)C1 (configuration not stated)
percent effect: 18.76%

Compound: CCS(=O)(=O)N1CCCC2(CCCN2C(=O)c2cn(C)cn2)C1 (configuration not stated)
percent effect: -20.32%

Compound: CCOCc1nn(C)c2c1CN(Cc1cccs1)CC2.O=C(O)C(F)(F)F
percent effect: 5.516%

Compound: COc1ncc(NS(=O)(=O)c2cccc(C)c2)c(OC)n1
percent effect: -19.58%

Compound: CC(C)(N)c1cn(C2CCN(c3ncccc3Cl)CC2)nn1
percent effect: 0.5877%

Compound: CN(C(=O)Cc1ccn(C)c1)C1CCCN(C2Cc3ccccc3C2)C1 (configuration not stated)
percent effect: 0.5987%

Compound: CNS(=O)(=O)c1ccc(C(=O)NCCc2ccccn2)cc1
percent effect: 19.97%

Compound: CNC(=O)[C@@H]1CN(C(=O)CCOC)C[C@H]1c1ccnc(N2CCCC2)n1.Cl
percent effect: 43.65%

Compound: N#Cc1ccc(CN2CC3(CCCCN3c3cccnc3)CC2=O)cc1.O=C(O)C(F)(F)F (configuration not stated)
percent effect: 13.88%

Compound: [H][C@@]12CCN(S(=O)(=O)CC)[C@]1([H])CCC(=O)N2CCOC
percent effect: 2.624%

Compound: Cc1cc(CN2C[C@@H](C)[C@@]3(CCN(CC(=O)N(C)C)C3=O)C2)oc1C.O=C(O)C(F)(F)F
percent effect: 16.02%

Compound: CC(C)N(C)CC(=O)N1CCCC(c2ccc(C(=O)O)cc2)C1 (configuration not stated)
percent effect: -12.04%

Compound: CCC[C@H]1CN(CCS(C)(=O)=O)C[C@@H]1NC(=O)Cn1cc(C)cn1
percent effect: 4.586%

Compound: CC(=O)Nc1ccc(C(=O)N2CCOc3nc(C)ccc32)cc1
percent effect: -31.63%

Compound: CN(C)C(=O)C1SCCc2ccccc21 (configuration not stated)
percent effect: 25.84%

Compound: COc1ccc(F)cc1-c1ccccc1CC1(C(=O)O)CCOCC1
percent effect: -14.25%

Compound: Cn1cc(C(=O)NCc2cn3c(n2)CN(Cc2ccncc2)CC3)cn1
percent effect: 9.461%

Compound: CC(C)N(CC(N)=O)Cc1csc(Cc2ccccc2)n1
percent effect: -39.44%

Compound: [H][C@@]12CCCO[C@]1([H])[C@H](NC(=O)c1cscn1)CN2c1ncccn1
percent effect: 8.883%

Compound: [H][C@@]12COC[C@]1(COc1ccc(C#N)cn1)CN(Cc1cnn(C)c1)C2
percent effect: 3.066%

Compound: CCC(NS(=O)(=O)c1ccc(C(=O)NC2CC2)cc1)c1ccnn1C (configuration not stated)
percent effect: 8.863%

Compound: CCCn1ncc(C(=O)NCCc2[nH]nc3c2CCCC3)c1C
percent effect: 10.46%

Compound: CC(C)(C)c1ncc(C(=O)NCCNC(=O)c2ccco2)s1
percent effect: -19.14%

Compound: CCS(=O)(=O)N(C)C1CCN(C(=O)c2ccc(Cl)cc2)CC1
percent effect: -13.67%

Compound: CNC(=O)C1CCN(S(C)(=O)=O)CC1
percent effect: 34.14%

Compound: OCc1ccc(-c2c(-c3ccccc3)ncn2CCN2CCOCC2)o1
percent effect: -5.405%

Compound: Cc1ccc2cnn(CCC(=O)Nc3c(C)nn(C)c3C)c2c1
percent effect: -2.27%

The first 6 entries again:

{"compound": "CN1CCC(c2cccc(NCc3ccncc3)n2)CC1", "percent effect": 10.08}
{"compound": "Cc1ccc(CN2CCOC3(COCCN(Cc4ccncc4)C3)C2)o1.O=C(O)C(F)(F)F.O=C(O)C(F)(F)F.O=C(O)C(F)(F)F", "stereo": "configuration not stated", "percent effect": 8.325}
{"compound": "O=C(O)C(F)(F)F.O=S1(=O)NCC2(CCNCC2)COc2ccccc21", "percent effect": 10.47}
{"compound": "O=S(=O)(NCc1ccc(S(=O)(=O)N2CCCC2)s1)c1cc(Cl)ccc1Cl", "percent effect": 2.046}
{"compound": "Cc1cnn(CCCOc2ccc3c(c2)OCO3)c1", "percent effect": -11.92}
{"compound": "COC(=O)CNC(=O)Cn1ccc2ccc(F)cc21", "percent effect": -21.23}

Source: ChEMBL document CHEMBL3988442, “University of Dundee, Small-Polar-MMV Screening Library” (2021).